Measured values taken from USRE47607E1, “Luciferase signal enhancing compositions” (GENE STREAM PTY LTD, priority 2006, dated 2019).
Some entries share one result that the patent states for a list of compounds. At least one structure is not confirmed: it was looked up by name or label, or the drawing left a doubt.

Test system: non-secreted Gaussia luciferase
Assay: non-secreted Gaussia luciferase activity in HeLa cell lysates
Format: biochemical
Details: salts at 150 mM in lysis buffer; FIG. 6
Procedure: HeLa cells stably expressing non-secreted and destabilized Gaussia luciferase were plated onto 96-well plates and incubated overnight. Medium was removed and the cells lysed in 30 ul of lysis buffer per well. The lysis buffer (LB) comprised; 25 mM Tris pH 7.8; 0.1% NP40; 1 mM EDTA plus NaBr at concentrations of (from left to right) 0 mM, 150 mM, 0 mM and 75 mM. Luciferase activity was assayed by injecting 30 ul of an assay buffer (AB) comprising 25 mM Tris pH 7.8; 40 uM Cz plus NaBr at concentrations of (from left to right) 0 mM, 0 mM, 150 mM and 75 mM. Thus, the final concentration of NaBr was 75 mM in all samples, except the no salt controls. Results were expressed as relative light units (RLU) (See FIG. 2).
HeLa cells stably expressing non-secreted and destabilized Gaussia luciferase were plated onto 96-well plates and incubated overnight. […] Luciferase activity was assayed at 40 min after addition of the lysis buffer (by injecting 60 ul of an assay buffer comprising 25 mM Tris pH 8.1; 1 mM EDTA, 2 mM Ascorbate; 26 uM Cz. Results were expressed as a % of the light units obtained in the absence of salt (see FIG. 3). […]
Luciferase assays were performed as described in Example 7, except using the indicated concentrations of salt and EDTA in the lysis buffer. […] Results were expressed as a % of the light units obtained after 20 min lysis in the same lysis buffer (see FIG. 7). […]

## [Br-].[K+] [KBr, potassium bromide]
  signal enhancement: > 5 fold

## [Br-].[Na+] [NaBr, sodium bromide]
  signal enhancement: > 5 fold
